Measurements taken from patent US6350585B1, “Reagent for assay of amylase isozyme activity” (priority 1998, dated 2002).
Some results were stated once for a whole list of compounds, not compound by compound. For at least one compound, name, drawing or mass did not settle the structure.

Target: T1, S-type amylase (Calibzyme S) (Homo sapiens, UniProt P0DUB6)
T1 construct: purchased International Reagents Corporation Calibzyme S
T1 sequence (P0DUB6 16-511): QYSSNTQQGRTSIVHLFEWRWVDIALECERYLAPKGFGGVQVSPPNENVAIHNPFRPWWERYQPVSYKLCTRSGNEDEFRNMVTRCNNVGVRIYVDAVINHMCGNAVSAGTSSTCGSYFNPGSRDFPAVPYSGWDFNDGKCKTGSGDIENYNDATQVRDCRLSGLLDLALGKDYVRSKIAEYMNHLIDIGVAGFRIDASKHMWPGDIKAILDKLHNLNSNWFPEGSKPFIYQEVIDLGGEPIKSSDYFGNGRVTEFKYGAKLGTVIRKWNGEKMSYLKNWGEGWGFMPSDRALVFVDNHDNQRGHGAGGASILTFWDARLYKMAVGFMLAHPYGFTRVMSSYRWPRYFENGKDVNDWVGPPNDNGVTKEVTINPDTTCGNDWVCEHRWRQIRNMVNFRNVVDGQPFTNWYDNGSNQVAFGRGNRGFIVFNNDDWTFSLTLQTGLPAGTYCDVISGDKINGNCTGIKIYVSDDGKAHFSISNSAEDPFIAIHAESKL
Assay: amylase isozyme activity assay with potassium thiocyanate as activator, S-type amylase sample
Type: biochemical
Experimental: A reagent for amylase isozyme activity assay comprising each composition as mentioned below was prepared. In the Table showing the composition, GalG2CNP (Example) is 2-chloro-4-nitrophenyl 4-O-β-D-galactopyranosylmaltoside, and G3CNP (Comparative Example) is 2-chloro-4-nitrophenylmaltotrioside.
S-type amylase-inhibiting antibody 88E8 (manufactured by Roche Diagnostics K.K.) 20 mg/L
S-type amylase-inhibiting antibody 66C7 (manufactured by Roche Diagnostics K.K.) 5 mg/L
Substrate (GalG2CNP (Example) or G3CNP (Comparative Example)) 2.6 mM
(3) S-type Amylase (Calibzyme S, Manufactured by International Reagents Corporation)
Each sample (0.05 mL was added to the reagent A (3 mL) and the reagent B (3 mL), respectively, and the mixtures were allowed to stand at 37° C. for 3 minutes. Then, the change in absorbance at 405 nm was assayed, and the change in absorbance per minute was calculated. The results are shown in Tables 1 and 2.
In the Tables, P is the case where P-type amylase was used as the sample, and S is the case where S-type amylase was used.
Percent residual enzyme activity (%)=(change in absorbance of composition A)/(change in absorbance of composition B)×100
Relative sensitivity (%)=(change in absorbance of composition B)/(change in absorbance of Comparative Example wherein potassium thiocyanate was 900 mM)×100

[1] = potassium thiocyanate 600 mM, FIG. 1 and FIG. 2
[2] = potassium thiocyanate 900 mM, FIG. 1 and FIG. 2
[3] = potassium thiocyanate only in the range of 50-200 mM

| percent inhibition of S-type amylase [1] | percent inhibition of S-type amylase [2] | percent inhibition of S-type amylase [3] | Structure (SMILES) |
| --- | --- | --- | --- |
| not more than 90% | not more than 80% | exceeded 95% | O=[N+]([O-])c1ccc(O[C@H]2O[C@H](CO)[C@@H](O[C@H]3O[C@H](CO)[C@@H](O[C@H]4O[C@H](CO)[C@@H](O)[C@H](O)[C@H]4O)[C@H](O)[C@H]3O)[C@H](O)[C@H]2O)c(Cl)c1 [Example G3CNP, 2-chloro-4-nitrophenylmaltotrioside, reference compound] |
| not more than 90% | not more than 80% | exceeded 95% | O=[N+]([O-])c1ccc(O[C@H]2O[C@H](CO)[C@@H](O[C@H]3O[C@H](CO)[C@@H](O[C@@H]4O[C@H](CO)[C@H](O)[C@H](O)[C@H]4O)[C@H](O)[C@H]3O)[C@H](O)[C@H]2O)c(Cl)c1 [GalG2CNP, 2-chloro-4-nitrophenyl 4-O-β-D-galactopyranosylmaltoside] |
